{"sequences": {"note": "Amino acid sequences for entries named in this document (tags omitted).", "UniProt Q0JBA9, entry or part of it": "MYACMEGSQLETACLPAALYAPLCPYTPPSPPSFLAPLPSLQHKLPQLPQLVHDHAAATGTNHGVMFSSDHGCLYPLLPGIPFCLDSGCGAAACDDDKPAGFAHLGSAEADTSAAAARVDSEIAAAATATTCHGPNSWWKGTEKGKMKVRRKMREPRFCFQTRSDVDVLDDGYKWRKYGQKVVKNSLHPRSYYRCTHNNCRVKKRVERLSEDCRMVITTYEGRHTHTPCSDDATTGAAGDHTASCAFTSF"}, "source": "paper PMC7819943", "about": "“Rice protein-binding microarrays: a tool to detect cis-acting elements near promoter regions in rice”", "note": "The list shows a part of the results.", "data": [{"target": "OsWRKY34 (Oryza sativa, UniProt Q0JBA9 1-250)", "assay": "protein-binding microarray (RPBM); PBS, 2% BSA, 51.3 ng/ul salmon testes DNA, 50 uM zinc acetate, 200 nM TF, 25 C, 1 h; high values mean tight binding", "conditions": "protein: recombinant; tags: N-terminal polyhistidine and DsRed monomer fusion (pET32a); label: CyDye5-dUTP incorporated in the synthesized complementary strand; 3' TTTTT single-stranded linker to array surface; dsDNA, one strand shown", "in_short": "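Binding signal is reported as fluorescence intensity per feature (arbitrary units) from an Axon 4000B scanner. Incubation used 200 nM of each Ni–NTA-purified, N-terminally polyhistidine- and DsRed-fused transcription factor from E. coli BL21-CodonPlus on a double-stranded custom Agilent array for 1 h at 25 °C, with 50 µM zinc acetate in the buffer, followed by washing.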", "values": [{"sequence": "CCACCCGCTGCTCTACTCGCACCAGGTAACCTATCACTGACGGAGTCACCTAGTGCAG", "binding signal": "8710 fluorescence intensity (a.u.)"}, {"sequence": "GGCCTAACCTATGTAGCCCGTTCGTTCCAGCCCAACAATACGGAGTCACCTAGTGCAG", "binding signal": "8940 fluorescence intensity (a.u.)"}, {"sequence": "GCCACGAATCGTTTCACCTCACTTCCCACCACCTCTCGCCCGGAGTCACCTAGTGCAG", "binding signal": "14900 fluorescence intensity (a.u.)"}, {"sequence": "TGCTAGGGTTTTCGGGAGGCGGGTCTAGGGTTGAGGCAAACGGAGTCACCTAGTGCAG", "binding signal": "12300 fluorescence intensity (a.u.)"}, {"sequence": "TAGCCTTTCAACCAGCGTCGTGCTTGGTTTTGTTATTCACCGGAGTCACCTAGTGCAG", "binding signal": "8980 fluorescence intensity (a.u.)"}, {"sequence": "AGGTGACGTTTCACTTGGATTTGCATGACTTTAGAGATTACGGAGTCACCTAGTGCAG", "binding signal": "8340 fluorescence intensity (a.u.)"}, {"sequence": "TGTCCCTGTCAGCTCCTGCTCTCTTTCCTCTCTTCTCTTTCGGAGTCACCTAGTGCAG", "binding signal": "8140 fluorescence intensity (a.u.)"}, {"sequence": "TCGAATAACTCCACAGGTACTACATATACATGCCATTTCTCGGAGTCACCTAGTGCAG", "binding signal": "11500 fluorescence intensity (a.u.)"}, {"sequence": "TTCTAATCGCCCACCTACTGACATATTGGTCGCATTGATACGGAGTCACCTAGTGCAG", "binding signal": "9760 fluorescence intensity (a.u.)"}, {"sequence": "CATTCCATCGCTGGTCCTTTTTTCACCAAATCAGTGCCAACGGAGTCACCTAGTGCAG", "binding signal": "11400 fluorescence intensity (a.u.)"}, {"sequence": "GAATCTCTATGCATTGTTTCTCCAGTGTTAACATCGTTTCCGGAGTCACCTAGTGCAG", "binding signal": "9140 fluorescence intensity (a.u.)"}, {"sequence": "CTGAAGTTCGCCATTGACATTGACTCAATTTGTTTATGCACGGAGTCACCTAGTGCAG", "binding signal": "8290 fluorescence intensity (a.u.)"}, {"sequence": "CTCGGCCAAAAAGAGATATCCCTTTCGCGCTCATCTTATCCGGAGTCACCTAGTGCAG", "binding signal": "9980 fluorescence intensity (a.u.)"}, {"sequence": "TTCCTCCCGCCGCCGCCGCCGTCTTCGCCTCCTTTATAATCGGAGTCACCTAGTGCAG", "binding signal": "12700 fluorescence intensity (a.u.)"}, {"sequence": "ATTCCCATCTCTCCACTCTCCCTCCTATCATATGCTCCTCCGGAGTCACCTAGTGCAG", "binding signal": "8390 fluorescence intensity (a.u.)"}, {"sequence": "AGCCTGAAGCTGCTTTCGTCGTCACCGGTTGCCGTCTGATCGGAGTCACCTAGTGCAG", "binding signal": "9190 fluorescence intensity (a.u.)"}, {"sequence": "GACGCGTTCTCGTGTGCTGCATATTGTTTAGCTTGTAAGACGGAGTCACCTAGTGCAG", "binding signal": "9440 fluorescence intensity (a.u.)"}, {"sequence": "CCACGACACCACTCTCACCGCTCTCGCCACGACACATTTTCGGAGTCACCTAGTGCAG", "binding signal": "8130 fluorescence intensity (a.u.)"}, {"sequence": "CTGCACTCTCCATTTCAGCGCTTTCCAGCTTTCCTCCTATCGGAGTCACCTAGTGCAG", "binding signal": "9920 fluorescence intensity (a.u.)"}, {"sequence": "ACACTCTATTAAGAGGATCCGTTTCATTTTTTGTTCCATCCGGAGTCACCTAGTGCAG", "binding signal": "8760 fluorescence intensity (a.u.)"}, {"sequence": "TACCAGTTCGAAGTTTTCGCATGCACCAACCAATCAATCGCGGAGTCACCTAGTGCAG", "binding signal": "10600 fluorescence intensity (a.u.)"}, {"sequence": "AACTCATTATGGATCCGCTCAGTACACCGTACACGGTGACCGGAGTCACCTAGTGCAG", "binding signal": "8830 fluorescence intensity (a.u.)"}, {"sequence": "ACAAGCTTCTTCTTCACCTCACCTCTCATCTCATCATCCCCGGAGTCACCTAGTGCAG", "binding signal": "8400 fluorescence intensity (a.u.)"}, {"sequence": "CTGTACTCTACTACACTACGACTACCCATTTTCATCGATCCGGAGTCACCTAGTGCAG", "binding signal": "9800 fluorescence intensity (a.u.)"}, {"sequence": "CTAGCACCCTACACTATAAAACCATATGCATCTGAATTTGCGGAGTCACCTAGTGCAG", "binding signal": "8350 fluorescence intensity (a.u.)"}, {"sequence": "GTTTGTCATTCTAGCACTGTCCACATTCATATTGATCTTACGGAGTCACCTAGTGCAG", "binding signal": "10300 fluorescence intensity (a.u.)"}, {"sequence": "GCCACTTTACCATTTTCATCATTTCTTCCATTTTAAGTTTCGGAGTCACCTAGTGCAG", "binding signal": "12200 fluorescence intensity (a.u.)"}, {"sequence": "TGTTCTAGCAGTTTTGTCCCATATTCGGGCTATAAATTTTCGGAGTCACCTAGTGCAG", "binding signal": "10300 fluorescence intensity (a.u.)"}, {"sequence": "TCTACTTCCCAAAACTTCTAATTTTTACGTGGAACTAATCCGGAGTCACCTAGTGCAG", "binding signal": "10400 fluorescence intensity (a.u.)"}, {"sequence": "TGTAATCTGTAGGCGTTGACTACCTCGCATGCCACGCAGTCGGAGTCACCTAGTGCAG", "binding signal": "10400 fluorescence intensity (a.u.)"}, {"sequence": "TGTTGGATGATGTTATTTTGCTATGTTGACTTGTTGAGACCGGAGTCACCTAGTGCAG", "binding signal": "8290 fluorescence intensity (a.u.)"}, {"sequence": "CCATCGTCCACCCTGACTGGCTCCAACTCTTTAGTATTCACGGAGTCACCTAGTGCAG", "binding signal": "9040 fluorescence intensity (a.u.)"}, {"sequence": "TATTTCTTCACCTTTAGTCATGTCACCTCTCACTTCACACCGGAGTCACCTAGTGCAG", "binding signal": "8650 fluorescence intensity (a.u.)"}, {"sequence": "TGCCTTAGGAGTTAGGTCTGATTTATGGTTTAGTTCCCAACGGAGTCACCTAGTGCAG", "binding signal": "9580 fluorescence intensity (a.u.)"}, {"sequence": "CTCAGTTTCGCGTATATCCTAGTACCAACGATCCCCATACCGGAGTCACCTAGTGCAG", "binding signal": "9640 fluorescence intensity (a.u.)"}, {"sequence": "CCTGTTTTTTGTTTTTGGTGGTGGTTCCGTCTCGGTTAATCGGAGTCACCTAGTGCAG", "binding signal": "9840 fluorescence intensity (a.u.)"}, {"sequence": "TAAATTTGTAGCCCGCTACTCTTCTCTCTTTTTATTTATTCGGAGTCACCTAGTGCAG", "binding signal": "10700 fluorescence intensity (a.u.)"}, {"sequence": "TCTGCTTGTACTCATGAGTTGTCATCTTAGATAGATGGGGCGGAGTCACCTAGTGCAG", "binding signal": "10600 fluorescence intensity (a.u.)"}, {"sequence": "CACAAGGCTGTTCATACAATTGGATTTTGTCTGCAGTTCTCGGAGTCACCTAGTGCAG", "binding signal": "11900 fluorescence intensity (a.u.)"}, {"sequence": "ACGTCATTCGTCCATAGCAATTCAAACTTCAAAGTCTCGTCGGAGTCACCTAGTGCAG", "binding signal": "8400 fluorescence intensity (a.u.)"}, {"sequence": "CGCCGCCTCCTCGTTCTTCCCTAGCCGTCGTCACCGCCCGCGGAGTCACCTAGTGCAG", "binding signal": "10000 fluorescence intensity (a.u.)"}, {"sequence": "GGTCTATAAATTCATGTACATTAGCACAACAACCACTACACGGAGTCACCTAGTGCAG", "binding signal": "9780 fluorescence intensity (a.u.)"}]}]}
